In the supplement of paper PMC11060735:
Where “and” joins values, the source holds several entries; their conditions need not be identical. Equal values may be shown once. Where a name gives a salt, the structure may show the parent alone. ± gives the standard deviation of the averaged measurements. In all, about 1,800 compounds were measured (“GFP- (p16Ink4a-) cell count relative to negative-control wells”: median about 0.99, lowest 2% from about 0.5 on). The list shows a part of the results.

System: mouse p16Ink4a+/- lung fibroblasts (INKBRITE, bleomycin-injured)
Assay: GFP- (p16Ink4a-) cell count relative to negative-control wells (fold of vehicle); higher = more p16Ink4a- cells surviving
Conditions: 1 µM; 3 days

| Structure (SMILES) | GFP- |
| --- | --- |
| N#C/C(=C\c1ccc(O)c(O)c1)C(=O)NCc1ccccc1 [Tyrphostin Ag 490] | 1 ± 0.042 |
| OC[C@H]1O[C@@H](c2ccc(Cl)c(Cc3ccc(O[C@H]4CCOC4)cc3)c2)[C@H](O)[C@@H](O)[C@@H]1O [Empagliflozin] | 0.943 |
| Oc1ccc(/C=C/c2cc(O)cc(O)c2)cc1 [Resveratrol] | 1.04 ± 0.1 |
| CNC(=O)c1ccc(N2C(=S)N(c3cnc(C#N)c(C(F)(F)F)c3)C(=O)C23CCC3)cc1F | 0.891 |
| COc1cc2nc(N3CCN(C(=O)C4COc5ccccc5O4)CC3)nc(N)c2cc1OC (stereo not drawn) [Doxazosin] | 0.969 |
| C[C@@H]1CN(CC(=O)Nc2ccc3c(c2)Cc2cccc(-c4cc(=O)cc(N5CCOCC5)o4)c2S3)C[C@H](C)O1 | 0.898 |
| Nc1ccn([C@@H]2O[C@H](CO)[C@@H](O)C2(F)F)c(=O)n1 [Gemcitabine] | 0.724 |
| O=C(O)/C=C/c1ccc(O)c(O)c1 [Caffeic Acid] | 0.903 |
| NC(=O)c1ncn([C@@H]2O[C@H](CO)[C@@H](O)[C@H]2O)c1N [Acadesine] | 1.12 |
| CCCc1nc(C)c2c(O)nc(-c3cc(S(=O)(=O)N4CCN(CC)CC4)ccc3OCC)nn12 [Vardenafil] | 0.975 |
| Cc1ccc([C@@H]2O[C@H](CO)[C@@H](O)[C@H](O)[C@H]2O)cc1Cc1ccc(-c2ccc(F)cc2)s1 [Canagliflozin] | 1.06 |
| C[C@H](Oc1cc(-c2cnn(C3CCNCC3)c2)cnc1N)c1c(Cl)ccc(F)c1Cl [(S)-crizotinib] | 1.08 |
| NC(=O)N/N=C/c1ccc([N+](=O)[O-])o1 [Nitrofural] | 0.939 |
| O=C(/C=C/c1ccc(O)c(O)c1)c1ccc(O)cc1O [Butein] | 0.832 |
| CCNC(=O)Nc1ccc(-c2nc3c(c(N4CCOC[C@@H]4C)n2)CCN(C2COC2)C3)cc1 | 0.69 |
| COc1ccc2c(c1)c(CC(=O)OCC(=O)O)c(C)n2C(=O)c1ccc(Cl)cc1 [Acemetacin] | 1.16 |
| CS(=O)c1ccc(-c2nc(-c3ccc(F)cc3)c(-c3ccncc3)[nH]2)cc1 (stereo not drawn) | 1.18 |
| O=C(c1cncc(Br)c1)N1CCC(N2CCCC2)CC1 | 0.924 ± 0.13 |
| CN(Cc1cc(Br)cc(Br)c1N)C1CCCCC1 [Bromhexine] | 1.04 |
| CN(C)CCc1c[nH]c2ccc(C[C@H]3COC(=O)N3)cc12 [Zolmitriptan] | 0.998 |
| O=C(O)C(O)Cc1ccc(O)c(O)c1 (stereo not drawn) [Sodium Danshensu] | 1.19 |
| CCN1CCN(C(=O)N[C@@H](C(=O)N[C@@H]2C(=O)N3C(C(=O)O)=C(CSc4nnnn4C)CS[C@H]23)c2ccc(O)cc2)C(=O)C1=O [Cefoperazone sodium salt] | 1.04 |
| CNc1ncnc2c1ncn2[C@@H]1O[C@H](CO)[C@@H](O)[C@H]1O [N6-methyladenosine] | 1.04 |
| O=c1c(-c2ccc(O)cc2)coc2cc(O)cc(O)c12 [Genistein] | 1.03 |
| CC(C)(O)CC[C@@H](O)[C@](C)(O)[C@H]1CC[C@@]2(O)C3=CC(=O)[C@@H]4C[C@@H](O)[C@@H](O)C[C@]4(C)[C@H]3CC[C@]12C [20-Hydroxyecdysone] | 1.08 |
| O=C(Nc1ccc(OC(F)(F)F)cc1)c1sccc1NCc1ccnc2ccccc12 | 0.964 |

| Structure (SMILES) | GFP- |
| --- | --- |
| Cc1nn(-c2ccccc2)c(C)c1/C=N/N1CCN(Cc2ccccc2)CC1 | 1.01 |
| CCOc1nc2cccc(C(=O)OCc3oc(=O)oc3C)c2n1Cc1ccc(-c2ccccc2-c2noc(O)n2)cc1 [Azilsartan medoxomil] | 1.11 |
| CC(C)Cc1ccc(C(C)C(=O)O)cc1 (racemic) | 0.966 |
| Cc1cn(-c2cc(NC(=O)c3ccc(C)c(Nc4nccc(-c5cccnc5)n4)c3)cc(C(F)(F)F)c2)cn1 [Nilotinib] | 1.14 |
| C=CC(=O)Nc1cccc(Oc2nc(Nc3ccc(N4CCN(C)CC4)cc3)ncc2Cl)c1 | 0.844 |
| OC(CN1CCN(c2cccc(Cl)c2)CC1)C(c1ccccc1)c1ccccc1 (stereo not drawn) | 1.09 |
| OC[C@@H](O)[C@@H](O)[C@H](O)[C@@H](O)CO [Sorbitol] | 1.06 |
| CC1=C(C(=O)O)N2C(=O)[C@@H](NC(=O)[C@H](N)c3ccccc3)[C@H]2SC1 [Cephalexin] | 0.858 |
| CCc1cncnc1N1CCN(Cc2nc3cc(C(F)(F)F)ccc3[nH]2)CC1 | 0.963 |
| Nc1ccc(-c2ccc3ncc4ccc(=O)n(-c5cccc(C(F)(F)F)c5)c4c3c2)cn1 [Torin 2] | 0.456 |
| Cc1cccc(Nc2cc(Cl)nc(SCC(=O)O)n2)c1C [Pirinixic Acid] | 1.03 |
| COC1=C2C[C@@H](C)C[C@H](OC)[C@H](O)[C@@H](C)/C=C(\C)[C@H](OC(N)=O)[C@@H](OC)/C=C/C=C(\C)C(=O)/N=C(/C=C1O)C2=O [Geldanamycin] | 0.879 |
| COc1cc2c(cc1OC)-c1cc3ccc(OC)c(OC)c3c[n+]1CC2 [Palmatine] | 0.986 |
| NC(=O)N1CCC(CC(=O)N2CCC([C@H]3c4ncc(Br)cc4CCc4cc(Cl)cc(Br)c43)CC2)CC1 [Lonafarnib] | 0.808 |
| CC(C[N+](C)(C)C)OC(N)=O (stereo not drawn) [Bethanechol] | 0.993 |
| O=C1C(O)=C(O)O[C@@H]1[C@@H](O)CO [Vitamin C] | 1.11 |
| CC1(C)CNc2cc(NC(=O)c3cccnc3NCc3ccncc3)ccc21 [Motesanib Diphosphate] | 1.02 |
| OC[C@H]1O[C@@H](OCCc2ccc(O)cc2)[C@H](O)[C@@H](O)[C@@H]1O [Salidroside] | 1.15 |
| O=S(=O)(O)Oc1ccc(C(c2ccc(OS(=O)(=O)O)cc2)c2ccccn2)cc1 [Picosulfuric acid] | 0.991 |
| CC[C@H]1OC(=O)[C@H](C)[C@@H](O[C@H]2C[C@@](C)(OC)[C@@H](O)[C@H](C)O2)[C@H](C)[C@@H](O[C@H]2O[C@H](C)C[C@H](N(C)C)[C@H]2O)[C@](C)(O)C[C@@H](C)CN(C)[C@H](C)[C@@H](O)[C@]1(C)O [Azithromycin] | 0.865 |
| CC1(C)O[C@@H]2C[C@H]3[C@@H]4CCC5=CC(=O)C=C[C@]5(C)[C@@]4(F)[C@@H](O)C[C@]3(C)[C@]2(C(=O)CO)O1 [Triamcinolone Acetonide] | 0.946 |
| COc1cc2nccc(Oc3ccc(NC(=O)Nc4ccc(F)cc4F)c(F)c3)c2cc1OC | 0.466 |
| [NH2][Pt]([NH2])([Cl])[Cl] [Cisplatin] | 1.05 |
| CC(=O)N[C@H]1[C@H]([C@H](O)[C@H](O)CO)OC(C(=O)O)=C[C@@H]1NC(=N)N [Zanamivir] | 0.924 |
| Cc1ccc(CNc2ncnc3ccc(-c4ccc(CO)o4)cc23)o1 | 0.793 |
| C[C@@H](NCCCc1cccc(C(F)(F)F)c1)c1cccc2ccccc12 [Cinacalcet] | 1.22 |

Reprinted from the entries so far for reference:

| Structure (SMILES) | GFP- |
| --- | --- |
| OC[C@H]1O[C@@H](OCCc2ccc(O)cc2)[C@H](O)[C@@H](O)[C@@H]1O [Salidroside] | 1.15 |
| O=S(=O)(O)Oc1ccc(C(c2ccc(OS(=O)(=O)O)cc2)c2ccccn2)cc1 [Picosulfuric acid] | 0.991 |
| CC[C@H]1OC(=O)[C@H](C)[C@@H](O[C@H]2C[C@@](C)(OC)[C@@H](O)[C@H](C)O2)[C@H](C)[C@@H](O[C@H]2O[C@H](C)C[C@H](N(C)C)[C@H]2O)[C@](C)(O)C[C@@H](C)CN(C)[C@H](C)[C@@H](O)[C@]1(C)O [Azithromycin] | 0.865 |

More structures.

| Structure (SMILES) | GFP- |
| --- | --- |
| CN1CCN(C2CCN(C(=O)Nc3cc(Oc4ccc(NC(=O)C5(C(=O)Nc6ccc(F)cc6)CC5)c(F)c4)ccn3)CC2)CC1 [Golvatinib] | 0.852 |
| C[C@@H]1O[C@@H](OC[C@H]2O[C@@H](Oc3c(-c4ccc(OCCO)c(OCCO)c4)oc4cc(OCCO)cc(O)c4c3=O)[C@H](O)[C@@H](O)[C@@H]2O)[C@H](O)[C@H](O)[C@H]1O [Troxerutin] | 1.02 |
| COc1cc(C=O)ccc1O [Vanillin] | 1.05 |
| CN/C(=C/[N+](=O)[O-])NCCSCc1csc(CN(C)C)n1 [Nizatidine] | 1.02 |
| Nc1nc(F)nc2c1ncn2[C@@H]1O[C@H](COP(=O)(O)O)[C@@H](O)[C@@H]1O [Fludarabine Phosphate] | 1.1 |
| CCN1CCCC1CNC(=O)c1cc(S(=O)(=O)CC)c(N)cc1OC (stereo not drawn) [Amisulpride] | 1.03 |
| O=C(NNc1ccccc1)c1ccncc1 [PluriSIn #1] | 0.849 |
| O=c1[nH]c(=O)n([C@H]2C[C@H](O)[C@@H](CO)O2)cc1F [Floxuridine] | 1.01 |
| O=C(NCc1ccccc1)c1csc(Nc2ccncn2)n1 [Thiazovivin] | 1.04 |
| COc1cc2ncnc(Nc3ccc(Cl)cc3F)c2cc1OC | 0.886 |
| CN1CCC[C@@H]1Cc1c[nH]c2ccc(CCS(=O)(=O)c3ccccc3)cc12 [Eletriptan] | 1.03 |
| CC1(C)S[C@H]2[C@@H](NC(=O)[C@@H](NC(=O)N3CCN(S(C)(=O)=O)C3=O)c3ccccc3)C(=O)N2[C@@H]1C(=O)O [Mezlocillin Sodium] | 0.913 |
| CNC[C@H](O)c1cccc(O)c1 [Phenylephrine] | 0.944 |
| COc1ccc2cc(CCC(C)=O)ccc2c1 [Nabumetone] | 1.12 |
| COCCO/C(O)=C1\C(C)=NC(C)=C(C(=O)OC(C)C)C1c1cccc([N+](=O)[O-])c1 (stereo not drawn) [Nimodipine] | 1.06 |
| O=C1c2cccc(O)c2C(=O)c2c(O)cc(CO)cc21 [Aloe-emodin] | 1.13 |
| OC(CCN1CCCCC1)(c1ccccc1)C1CC2C=CC1C2 (stereo not drawn) [Biperiden] | 1.22 |
| CC(C)C[C@H](NC(=O)CNC(=O)c1cc(Cl)ccc1Cl)B(O)O [Ixazomib] | 0.394 |
| CC(=O)c1cc([N+](=O)[O-])c(Sc2ccc(F)cc2F)s1 | 0.741 |
| CCOC(=O)CCNc1cc(N2CCc3ccccc3CC2)nc(-c2ccccn2)n1 | 0.875 ± 0.048 |
| CNCC[C@H](Oc1cccc2ccccc12)c1cccs1 [Duloxetine] | 1.15 |
| O=C(NC1CCOCC1)c1ccc(-c2cc(-c3c[nH]nc3-c3ccccn3)ccn2)cc1 | 1.27 |
| COc1ccccc1OCC(O)CN1CCN(CC(=O)Nc2c(C)cccc2C)CC1 (stereo not drawn) [Ranolazine, Ranolazine Dihydrochloride] | 1.07 and 0.977 |
| NC(=O)Nc1sc(-c2ccc(F)cc2)cc1C(N)=O | 0.788 |
| O=c1[nH]c(=O)n([C@H]2C[C@H](O)[C@@H](CO)O2)cc1I [Idoxuridine] | 0.952 |
| CC[C@H]1OC(=O)[C@H](C)[C@@H](O[C@H]2C[C@@](C)(OC)[C@@H](O)[C@H](C)O2)[C@H](C)[C@@H](O[C@@H]2O[C@H](C)C[C@H](N(C)C)[C@H]2O)[C@](C)(O)C[C@@H](C)/C(=N/OCOCCOC)[C@H](C)[C@@H](O)[C@]1(C)O [Roxithromycin] | 0.988 |
